Here are results for 42 compounds from the supplement of paper PMC9135407.

The assay relates to primary human hepatic stellate cells (donor 1). In words: percent Bodipy-positive cells; higher = more lipid droplet accumulation. As to conditions: 48 h.
[1] abbreviates: library stock concentration: 1 mM.
The mark [2] stands for this setting: library stock concentration: 10 mM.
Where [3] appears, read: library stock concentration: 3.33 mM.
Where [4] appears, read: library stock concentration: 13.5 mM.
Where [5] appears, read: library stock concentration: 80 uM.
[6] abbreviates: library stock concentration: 400 uM.
Where [7] appears, read: library stock concentration: 2 mM.

Each structure is given as a SMILES string. “And” between values parts separate entries of the source, which are not always exact repeats. Equal entries are not always repeated. Structures can show the parent of a compound that is named as a salt. ± gives the standard deviation of the averaged measurements. The list shows a part of the results. Baselines shift from plate to plate; read single values as rough.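 Culture-activated primary human stellate myofibroblasts, where regained lipid droplets signal inactivation. Value: share of Hoechst-counted cells above a per-plate Bodipy cutoff, in duplicate wells, with DMSO negative and nortriptyline positive controls on each plate. Hits: a control-normalized score above the plate's top-tenth-percentile nortriptyline wells, or one of a plate's three best wells. Final well concentrations are not given.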

With `C[C@H](CCCO)[C@H]1CC[C@H]2[C@@H]3[C@H](O)C[C@H]4C[C@H](O)CC[C@]4(C)[C@H]3C[C@H](O)[C@]12C` [Petromyzonol], under setting [1], the “percent Bodipy-positive cells” value came out at 11.8 ± 0.27%.

In the case of `CN1CCCC1CCOC(C)(c1ccccc1)c1ccc(Cl)cc1.O=C(O)/C=C/C(=O)O` (stereo unspecified) [Clemastine fumarate], the “percent Bodipy-positive cells” value under setting [2] was determined as 93.9 ± 3.6%.

As to `COc1cccc2c1C(=O)c1c(O)c3c(c(O)c1C2=O)C[C@@](O)(C(=O)CO)C[C@@H]3O[C@H]1C[C@H](N)[C@@H](O)[C@H](C)O1`, the “percent Bodipy-positive cells” value under setting [2] stood at 100%.

With `COc1cccc2c1C(=O)c1c(O)c3c(c(O)c1C2=O)C[C@@](O)(C(=O)CO)C[C@@H]3O[C@H]1C[C@H](N)[C@@H](O)[C@H](C)O1` [Epirubicin HCl], the “percent Bodipy-positive cells” value is, setting by setting: under setting [3], 90 ± 14%; under setting [2], 50 ± 71%.

Turning to `O=C(O)CCCCCCC1C(=O)N(Cc2ccccc2)C(=O)N1NCC(O)C1CCCCC1` (stereo unspecified), the “percent Bodipy-positive cells” value under setting [1] is 12.2 ± 6.1%.

As for `CCCN(CCC)CCc1cccc2c1CC(=O)N2` [Ropinirole], the “percent Bodipy-positive cells” value (library stock concentration: 7.7 mM) worked out at 11.3 ± 5.5%.

For the compound `CCCN(CCC)CCc1cccc2c1CC(=O)N2` [Ropinirole HCl], the “percent Bodipy-positive cells” value came to 27.8 ± 0.3% under setting [3] and 15.5 ± 6.2% under setting [2].

With `CCCN(CCC)CCc1cccc2c1CC(=O)N2` [Ropinirole hydrochloride], the “percent Bodipy-positive cells” value under setting [2] amounted to 17 ± 5.9%.

For the compound `N=C(N)c1ccc(N)cc1` [4-Aminobenzamidine dihydrochloride], the “percent Bodipy-positive cells” value under setting [2] was 45 ± 11%.

As for `CC(=O)O/N=C1/C(c2c(O)[nH]c3cc(Br)ccc23)=Nc2ccccc21` [GSK-3 Inhibitor X], the “percent Bodipy-positive cells” value under setting [3] was 16.4 ± 1.2%.

For the compound `C/C=C/c1ccc(OC)cc1` [Anethole], the “percent Bodipy-positive cells” value is 45 ± 1.5% under setting [2] and 9.98 ± 4.6% under setting [4].

Take `C/C=C/c1ccc(OC)cc1` [Anethole, trans-]: under setting [4], the “percent Bodipy-positive cells” value was 5.57 ± 2.1%.

In the case of `CCCCC(C)(C)[C@H](O)/C=C/[C@@H]1[C@@H](C/C=C\CCCC(=O)O)[C@H](O)C[C@H]1O` [16,16-dimethyl Prostaglandin F2.beta.], the “percent Bodipy-positive cells” value under setting [1] is 23.3 ± 1.6%.

As to `C=C(C)[C@@H]1CC[C@]2(CO)CC[C@]3(C)[C@H](CC[C@@H]4[C@@]5(C)CC[C@H](O)C(C)(C)[C@@H]5CC[C@]43C)[C@@H]12` [Betulin], the “percent Bodipy-positive cells” value is 8.87 ± 2.6%.

As to `CCCNC(=O)Nc1ccc(Oc2ncnc3cc(OC)c(OC)cc23)cc1Cl`, the “percent Bodipy-positive cells” value under setting [5] was 8.14 ± 2.9%, the “percent Bodipy-positive cells” value under setting [6] was determined as 14 ± 2.3%, the “percent Bodipy-positive cells” value under setting [7] was 7.5 ± 2.7% and the “percent Bodipy-positive cells” value under setting [3] turned out to be 22 ± 15%.

Consider `CC(C)=CCC/C(C)=C/CC/C(C)=C/CC[C@]1(C)CCc2c(C)c(O)c(C)c(C)c2O1` [.alpha.-Tocotrienol], for which the “percent Bodipy-positive cells” value under setting [1] turned out to be 6.26 ± 1.4%.

As to `CC(COc1ccccc1Cc1ccccc1)N1CCCCC1.O=P(O)(O)O` (stereo unspecified), the “percent Bodipy-positive cells” value under setting [2] turned out to be 87.2 ± 2.7%.

For the compound `O=C(O)c1cc(=O)c2c(Cl)cc(Cl)cc2[nH]1` [5,7-Dichlorokynurenic acid], the “percent Bodipy-positive cells” value under setting [2] is 28.5% and 5.64%.

Turning to `CN(C)C(=O)C(=O)c1cn(C)c2cc(Cl)c(C(=O)N3CCC(Cc4ccc(F)cc4)CC3)cc12`, the “percent Bodipy-positive cells” value under setting [2] was determined as 10.5 ± 0.77%.

Regarding `CN(C)CC/C=C1\c2ccccc2Sc2ccc(Cl)cc21.Cl` [Chlorprothixene hydrochloride], the “percent Bodipy-positive cells” value is 84.8 ± 2.2%.

On to `CCCCC[C@H](O)/C=C/[C@H]1CC[C@@H](O)[C@@H]1CCCCCCC(=O)O` [11-deoxy Prostaglandin F1.beta.], for which, under setting [1], the “percent Bodipy-positive cells” value turned out to be 21.2 ± 1.9%.

In the case of `Oc1cccc(O)c1` [Resorcinol], the “percent Bodipy-positive cells” value runs as follows: under setting [2], 10.1 ± 0.43%; (library stock concentration: 18.2 mM) 12.9 ± 6.3%.

Consider `C[C@@H](O[C@H]1OCCN(Cc2n[nH]c(=O)[nH]2)[C@H]1c1ccc(F)cc1)c1cc(C(F)(F)F)cc(C(F)(F)F)c1` [Aprepitant], for which the “percent Bodipy-positive cells” value came out at 27.8 ± 9.8% under setting [3] and 14.6 ± 11% under setting [2].

`CCCCN(CCCC)CC(O)c1cc(Cl)cc2c1-c1ccc(Cl)cc1/C2=C/c1ccc(Cl)cc1` (stereo unspecified) [Lumefantrine]: the “percent Bodipy-positive cells” value under setting [2] was found to be 36.8 ± 1.6%.

For the compound `Cc1cn(-c2cc(NC(=O)c3ccc(C)c(Nc4nccc(-c5cccnc5)n4)c3)cc(C(F)(F)F)c2)cn1`, the “percent Bodipy-positive cells” value under setting [5] is 15.9 ± 6.1%, the “percent Bodipy-positive cells” value under setting [6] came to 9.97 ± 0.65%, the “percent Bodipy-positive cells” value under setting [7] was 19.9 ± 11% and the “percent Bodipy-positive cells” value under setting [2] came to 10.9 ± 2.5%.

Take `Cc1cn(-c2cc(NC(=O)c3ccc(C)c(Nc4nccc(-c5cccnc5)n4)c3)cc(C(F)(F)F)c2)cn1` [Nilotinib (AMN107, Tasigna) (0.4 mM)]: under setting [6], the “percent Bodipy-positive cells” value was 12.6 ± 2.9%.

Regarding `Cc1cn(-c2cc(NC(=O)c3ccc(C)c(Nc4nccc(-c5cccnc5)n4)c3)cc(C(F)(F)F)c2)cn1` [Nilotinib (AMN107, Tasigna) (2 mM)], under setting [7], the “percent Bodipy-positive cells” value was 27.5 ± 18%.

Regarding `Cc1cn(-c2cc(NC(=O)c3ccc(C)c(Nc4nccc(-c5cccnc5)n4)c3)cc(C(F)(F)F)c2)cn1` [Nilotinib (AMN107, Tasigna) (10 mM)], the “percent Bodipy-positive cells” value under setting [2] turned out to be 68.9 ± 23%.

As to `Cc1cn(-c2cc(NC(=O)c3ccc(C)c(Nc4nccc(-c5cccnc5)n4)c3)cc(C(F)(F)F)c2)cn1` [Nilotinib (AMN-107)], the “percent Bodipy-positive cells” value was determined as 68.2 ± 25% under setting [3] and 97.4 ± 2.2% under setting [2].

In the case of `NC(=O)c1ccc(-c2nc(-c3ccccn3)c(-c3ccc4c(c3)OCO4)[nH]2)cc1`, the “percent Bodipy-positive cells” value is, setting by setting: under setting [1], 14.8 ± 3.4%; under setting [3], 11.2 ± 3.5%; under setting [2], 18.4% and 13.2%; (library stock concentration: 13 mM) 28.8 ± 13%.

For `Cc1cc(O)cc(C)c1Cl` [Chloroxylenol], the “percent Bodipy-positive cells” value under setting [2] is 13.5 ± 1.2%.

As to `CC(C)(C)c1ccc(S(=O)(=O)/C=C/C#N)cc1`, the “percent Bodipy-positive cells” value under setting [2] came out at 16.7 ± 0.43%.

Regarding `Cl.O=C(NCCCN1CCCCCC1)C(c1ccccc1)C1CCCCC1` (stereo unspecified), the “percent Bodipy-positive cells” value under setting [2] was 59.2 ± 5.4%.

As to `CC(N)CCCC(C)(C)O` (stereo unspecified) [Heptaminol hydrochloride], the “percent Bodipy-positive cells” value was 28.5 ± 1.3%. Further, the “percent Bodipy-positive cells” value under setting [2] is 42.1 ± 8%.

As for `CCCCC[C@H](O)/C=C/[C@@H]1[C@H]2C/C(=C/CCCC(=O)O)C[C@H]2C[C@H]1O` [Carbacyclin], under setting [1], the “percent Bodipy-positive cells” value came to 20.2 ± 18%.

`CN1CCCN=C1/C=C/c1cccc(O)c1` [Oxantel pamoate]: the “percent Bodipy-positive cells” value turned out to be 31.9 ± 4.9%.

On to `O=[N+]([O-])c1ccc(CSc2ncnc3c2ncn3[C@@H]2O[C@H](CO)[C@@H](O)[C@H]2O)cc1` [S-(4-Nitrobenzyl)-6-thioinosine], for which the “percent Bodipy-positive cells” value under setting [2] is 26.8 ± 3.4%.

Take `Cn1cc(CNCC2CCN(c3ncc(C(=O)NO)cn3)CC2)c2ccccc21`: the “percent Bodipy-positive cells” value under setting [2] worked out at 94.3 ± 2%.

Consider `CC(=O)c1c(C)c2cnc(Nc3ccc(N4CCNCC4)cn3)nc2n(C2CCCC2)c1=O`, for which the “percent Bodipy-positive cells” value by setting is: under setting [5], 13.9 ± 5%; under setting [6], 8.26 ± 0.43%; under setting [7], 8.05 ± 5.8%; under setting [3], 26.2 ± 19%.

With `Clc1ccc2c(N3CCN(CCCN4CCN(c5ccnc6cc(Cl)ccc56)CC4)CC3)ccnc2c1` [Piperaquine tetraphosphate tetrahydrate], the “percent Bodipy-positive cells” value under setting [2] stood at 71.6 ± 3.5%.

`CCCCCCCCCCCCC/C=C/[C@@H](O)[C@H](CO)N(C)C` [N,N-Dimethylsphingosine]: under setting [1], the “percent Bodipy-positive cells” value is 84.2 ± 6.3%.

As to `C[C@H]1[C@H](C)CC[C@]2(C(=O)O[C@@H]3O[C@H](CO[C@@H]4O[C@H](CO)[C@@H](O[C@@H]5O[C@H](C)[C@H](O)[C@@H](O)[C@H]5O)[C@H](O)[C@H]4O)[C@@H](O)[C@H](O)[C@H]3O)CC[C@]3(C)C(=CC[C@@H]4[C@@]5(C)C[C@@H](O)[C@H](O)[C@@](C)(CO)[C@@H]5CC[C@]43C)[C@H]12` [Asiaticoside], the “percent Bodipy-positive cells” value worked out at 7.77 ± 3.2%.
